Reference: the supplement of paper PMC12889115
The other results are listed elsewhere or left out. Values are raw readings; no control value is given beside them.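 Primary screen: polymyxin B was added at a level permeabilizing Salmonella outer membranes while sparing inner membranes. DMSO wells, both with and without polymyxin B, established maximum growth. Plate-to-plate variation meant each plate was ranked on its own, and the lowest-OD600 compounds were selected as hits.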

System: Salmonella enterica serovar Typhimurium SL1344
Test: bacterial growth OD600 after 18 h with compound and polymyxin B; higher = more bacterial growth (less inhibition)
Conditions: 50 µM, Mueller-Hinton broth

SMILES	bacterial growth OD600 (polymyxin B 1 µg/mL)	bacterial growth OD600 (polymyxin B 0.75 µg/mL)
CCOC(=O)C1(Cc2cccc(OC)c2)CCCN(Cc2cnn(CC)c2C)C1 (centres undefined)	0.913	
CCCN1CCC(N2CCCCC2C(=O)Nc2ccc(Oc3ccccc3)nc2)CC1 (centres undefined)		0.808
CC(c1ccon1)N(C)C(=O)CC1(c2ccc(-c3ccccc3)cc2)CC(=O)N(C)C1=O (centres undefined)		0.003
CS(=O)(=O)N1CCC(Oc2ccc(C(=O)NC3CCCCCC3)cc2Cl)CC1	0.027	
CO[C@H]1[C@H](NC(=O)c2ccncc2)c2ccccc2C12CCN(C(=O)CCc1ccccc1)CC2		0.808
O=C(c1ccc(-c2ccccc2)[nH]c1=O)N1CCCC(CO)(Cc2ccc(F)cc2)C1 (centres undefined)	1	
O=C(CCC1(Cc2ccc3ccccc3c2)CCC(=O)N1)NCCc1ccc(C(F)(F)F)cc1 (centres undefined)		0.983
Cc1ccccc1CN1CCN(Cc2ccccc2F)C(CCO)C1 (centres undefined)	1.16	
CC[C@@]1(C(=O)OC)C[C@H](C(=O)NC(C)(C)CO)[C@H](c2ccc(OC)cc2)N1C		0.819
CC1CCN(C(=O)CC2(c3ccc(-c4ccccc4)cc3)CC(=O)N(C)C2=O)CC1 (centres undefined)		0.003
CCOC(=O)C1CCCN(C(=O)c2cc(COc3ccccc3F)[nH]n2)C1 (centres undefined)		0.763
O=C(Nc1cccc(-n2cccn2)c1)C1CCCN1C1CCCCC1 (centres undefined)	0.886	
O=C1CC(NS(=O)(=O)N2CCOCC2)CN1CCc1ccccc1 (centres undefined)	0.93	
COc1ccc(F)c(CC2(CCC(=O)NCC3CCCN(c4ncccn4)C3)CCC(=O)N2)c1 (centres undefined)		0.852
Cc1cc(Cl)ccc1C(=O)C1CCCN(C(=O)CCc2ccc3c(c2)OCO3)C1 (centres undefined)	0.647	
O=C(CCc1cccc(Cl)c1)NC1CCCN(CCc2ccccc2)C1 (centres undefined)	1.24	
COC(=O)C1CCCCN1C(=O)C1CCCN(c2nc(C)c3ccc(S(C)(=O)=O)cc3n2)C1 (centres undefined)		0.799
Cc1nc(-c2ccncc2)ncc1C(C)NC1CCCCC1 (centres undefined)		0.788
CCN1CCN(C2(C(=O)N3CCC(COC)C3)Cc3ccccc3C2)CC1 (centres undefined)		0.785
COc1ccc(F)c(CN2CCCC3(CCN(C(=O)NC(C)C)C3)C2=O)c1 (centres undefined)	0.931	
O=C(Cc1ccccc1)N1CCOc2c(cc(-c3cccnc3)cc2OCCc2cccs2)C1		0.01
COc1ccccc1CCC(=O)Nc1cnn(CC(=O)N2CCC(C(O)c3cccs3)CC2)c1 (centres undefined)		0.864
COC1CCCN(C(=O)CC2(c3ccc(-c4ccccc4)cc3)CC(=O)N(C)C2=O)C1 (centres undefined)		0.949
CCCn1ncc(CN2CCN(Cc3cccc(OC)c3)C(CCO)C2)c1C (centres undefined)	0.829	
CSc1ccccc1C(=O)N1CCC(C2(CCC(C)C)NC(=O)N(Cc3ccccn3)C2=O)CC1 (centres undefined)		0.914
Cc1ccc(CNC(=O)C2CCCN(C3CCN(C(=O)C4CC4)CC3)C2)s1 (centres undefined)	0.88	
COc1cccc(CCC2CCCN(C(=O)CCn3cccn3)C2)c1 (centres undefined)		0.798
COCCN1C(=O)NC(Cc2ccc(F)cc2)(C2CCN(C(=O)c3ccc(C)cc3)CC2)C1=O (centres undefined)		0.798
NC(=O)[C@H](Cc1ccccc1)NC(=O)CC1c2ccccc2CCc2ccccc21		0.526

No new results follow: 2 of the compounds above.
SMILES	bacterial growth OD600 (polymyxin B 1 µg/mL)	bacterial growth OD600 (polymyxin B 0.75 µg/mL)
CCCN1CCC(N2CCCCC2C(=O)Nc2ccc(Oc3ccccc3)nc2)CC1 (centres undefined)		0.808
CC(c1ccon1)N(C)C(=O)CC1(c2ccc(-c3ccccc3)cc2)CC(=O)N(C)C1=O (centres undefined)		0.003
